Assay results as given in article PMC7778598.
These are yes or no findings as the source states them, for the method shown. In cells and extracts the contact can be indirect. Here binding means that the protein was enriched with, or labelled near, the bait; the list need not be complete.

The chains behind the UniProt entries cited, without tags or fusion partners.
UniProt P84077: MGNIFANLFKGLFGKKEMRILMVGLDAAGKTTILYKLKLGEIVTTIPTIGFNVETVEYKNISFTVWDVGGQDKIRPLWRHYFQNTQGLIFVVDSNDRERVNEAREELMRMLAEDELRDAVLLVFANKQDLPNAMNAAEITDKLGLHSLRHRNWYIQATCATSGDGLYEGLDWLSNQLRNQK
UniProt P46940: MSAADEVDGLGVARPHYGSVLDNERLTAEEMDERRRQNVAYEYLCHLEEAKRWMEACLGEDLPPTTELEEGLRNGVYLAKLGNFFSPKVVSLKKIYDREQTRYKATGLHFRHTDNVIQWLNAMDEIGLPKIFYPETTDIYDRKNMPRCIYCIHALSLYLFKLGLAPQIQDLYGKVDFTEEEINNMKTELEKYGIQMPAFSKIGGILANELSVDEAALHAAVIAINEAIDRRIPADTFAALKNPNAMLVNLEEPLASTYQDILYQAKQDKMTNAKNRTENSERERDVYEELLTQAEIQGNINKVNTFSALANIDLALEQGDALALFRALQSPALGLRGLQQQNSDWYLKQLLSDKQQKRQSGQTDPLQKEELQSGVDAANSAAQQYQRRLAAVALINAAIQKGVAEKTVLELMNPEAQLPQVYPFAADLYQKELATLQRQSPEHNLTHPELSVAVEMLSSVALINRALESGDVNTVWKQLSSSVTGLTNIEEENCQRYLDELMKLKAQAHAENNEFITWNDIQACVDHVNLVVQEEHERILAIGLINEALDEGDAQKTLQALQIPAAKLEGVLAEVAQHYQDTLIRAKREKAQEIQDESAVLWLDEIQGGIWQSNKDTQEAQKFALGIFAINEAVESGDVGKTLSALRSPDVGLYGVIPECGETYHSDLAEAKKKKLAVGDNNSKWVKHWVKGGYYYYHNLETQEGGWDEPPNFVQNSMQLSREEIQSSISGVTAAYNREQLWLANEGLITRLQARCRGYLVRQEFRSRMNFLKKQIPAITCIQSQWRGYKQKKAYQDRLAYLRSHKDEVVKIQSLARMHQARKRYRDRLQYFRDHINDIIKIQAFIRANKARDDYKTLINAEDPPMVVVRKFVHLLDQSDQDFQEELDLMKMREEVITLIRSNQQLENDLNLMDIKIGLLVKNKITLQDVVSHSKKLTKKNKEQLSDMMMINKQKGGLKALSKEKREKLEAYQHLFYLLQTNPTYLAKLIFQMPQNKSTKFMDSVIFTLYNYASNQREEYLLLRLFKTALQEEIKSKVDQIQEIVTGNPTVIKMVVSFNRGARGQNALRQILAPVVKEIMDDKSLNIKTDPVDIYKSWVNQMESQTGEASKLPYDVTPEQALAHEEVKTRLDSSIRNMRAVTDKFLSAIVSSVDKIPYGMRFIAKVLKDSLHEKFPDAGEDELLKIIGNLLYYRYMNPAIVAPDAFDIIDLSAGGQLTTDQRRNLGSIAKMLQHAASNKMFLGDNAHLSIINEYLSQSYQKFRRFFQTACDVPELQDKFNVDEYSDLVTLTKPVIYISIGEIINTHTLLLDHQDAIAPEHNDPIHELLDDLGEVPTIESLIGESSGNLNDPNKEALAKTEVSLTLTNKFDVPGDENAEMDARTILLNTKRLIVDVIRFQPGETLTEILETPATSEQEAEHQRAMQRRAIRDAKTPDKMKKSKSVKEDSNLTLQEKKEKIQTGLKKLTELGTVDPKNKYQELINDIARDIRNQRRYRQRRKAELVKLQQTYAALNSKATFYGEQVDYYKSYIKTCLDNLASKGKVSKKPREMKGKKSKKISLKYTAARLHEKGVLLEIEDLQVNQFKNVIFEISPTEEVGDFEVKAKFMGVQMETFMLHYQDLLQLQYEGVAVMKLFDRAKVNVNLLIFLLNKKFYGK

Molecular target: ADP-ribosylation factor 1 (human (in HCT116; endogenous or overexpressed not stated)) (UniProt P84077)
Test: affinity purification with mass spectrometry; ARF1 immunoprecipitates from HCT116 cells separated on a gel; interacting proteins identified by mass spectrometry

binding: binds
Substance: IQ-domain GTPase-activating protein 1 (from UniProt P46940 1-1657)
